Measured values: article PMC4659909
These are yes or no findings as the source states them, for the method shown. In cells and extracts the contact can be indirect. Some binding calls cover weakened binding; strength is not graded here.

By UniProt entry, the sequences of proteins in these tests, tags left out. Residues count along the entry.
UniProt Q01705, residues 19-2531: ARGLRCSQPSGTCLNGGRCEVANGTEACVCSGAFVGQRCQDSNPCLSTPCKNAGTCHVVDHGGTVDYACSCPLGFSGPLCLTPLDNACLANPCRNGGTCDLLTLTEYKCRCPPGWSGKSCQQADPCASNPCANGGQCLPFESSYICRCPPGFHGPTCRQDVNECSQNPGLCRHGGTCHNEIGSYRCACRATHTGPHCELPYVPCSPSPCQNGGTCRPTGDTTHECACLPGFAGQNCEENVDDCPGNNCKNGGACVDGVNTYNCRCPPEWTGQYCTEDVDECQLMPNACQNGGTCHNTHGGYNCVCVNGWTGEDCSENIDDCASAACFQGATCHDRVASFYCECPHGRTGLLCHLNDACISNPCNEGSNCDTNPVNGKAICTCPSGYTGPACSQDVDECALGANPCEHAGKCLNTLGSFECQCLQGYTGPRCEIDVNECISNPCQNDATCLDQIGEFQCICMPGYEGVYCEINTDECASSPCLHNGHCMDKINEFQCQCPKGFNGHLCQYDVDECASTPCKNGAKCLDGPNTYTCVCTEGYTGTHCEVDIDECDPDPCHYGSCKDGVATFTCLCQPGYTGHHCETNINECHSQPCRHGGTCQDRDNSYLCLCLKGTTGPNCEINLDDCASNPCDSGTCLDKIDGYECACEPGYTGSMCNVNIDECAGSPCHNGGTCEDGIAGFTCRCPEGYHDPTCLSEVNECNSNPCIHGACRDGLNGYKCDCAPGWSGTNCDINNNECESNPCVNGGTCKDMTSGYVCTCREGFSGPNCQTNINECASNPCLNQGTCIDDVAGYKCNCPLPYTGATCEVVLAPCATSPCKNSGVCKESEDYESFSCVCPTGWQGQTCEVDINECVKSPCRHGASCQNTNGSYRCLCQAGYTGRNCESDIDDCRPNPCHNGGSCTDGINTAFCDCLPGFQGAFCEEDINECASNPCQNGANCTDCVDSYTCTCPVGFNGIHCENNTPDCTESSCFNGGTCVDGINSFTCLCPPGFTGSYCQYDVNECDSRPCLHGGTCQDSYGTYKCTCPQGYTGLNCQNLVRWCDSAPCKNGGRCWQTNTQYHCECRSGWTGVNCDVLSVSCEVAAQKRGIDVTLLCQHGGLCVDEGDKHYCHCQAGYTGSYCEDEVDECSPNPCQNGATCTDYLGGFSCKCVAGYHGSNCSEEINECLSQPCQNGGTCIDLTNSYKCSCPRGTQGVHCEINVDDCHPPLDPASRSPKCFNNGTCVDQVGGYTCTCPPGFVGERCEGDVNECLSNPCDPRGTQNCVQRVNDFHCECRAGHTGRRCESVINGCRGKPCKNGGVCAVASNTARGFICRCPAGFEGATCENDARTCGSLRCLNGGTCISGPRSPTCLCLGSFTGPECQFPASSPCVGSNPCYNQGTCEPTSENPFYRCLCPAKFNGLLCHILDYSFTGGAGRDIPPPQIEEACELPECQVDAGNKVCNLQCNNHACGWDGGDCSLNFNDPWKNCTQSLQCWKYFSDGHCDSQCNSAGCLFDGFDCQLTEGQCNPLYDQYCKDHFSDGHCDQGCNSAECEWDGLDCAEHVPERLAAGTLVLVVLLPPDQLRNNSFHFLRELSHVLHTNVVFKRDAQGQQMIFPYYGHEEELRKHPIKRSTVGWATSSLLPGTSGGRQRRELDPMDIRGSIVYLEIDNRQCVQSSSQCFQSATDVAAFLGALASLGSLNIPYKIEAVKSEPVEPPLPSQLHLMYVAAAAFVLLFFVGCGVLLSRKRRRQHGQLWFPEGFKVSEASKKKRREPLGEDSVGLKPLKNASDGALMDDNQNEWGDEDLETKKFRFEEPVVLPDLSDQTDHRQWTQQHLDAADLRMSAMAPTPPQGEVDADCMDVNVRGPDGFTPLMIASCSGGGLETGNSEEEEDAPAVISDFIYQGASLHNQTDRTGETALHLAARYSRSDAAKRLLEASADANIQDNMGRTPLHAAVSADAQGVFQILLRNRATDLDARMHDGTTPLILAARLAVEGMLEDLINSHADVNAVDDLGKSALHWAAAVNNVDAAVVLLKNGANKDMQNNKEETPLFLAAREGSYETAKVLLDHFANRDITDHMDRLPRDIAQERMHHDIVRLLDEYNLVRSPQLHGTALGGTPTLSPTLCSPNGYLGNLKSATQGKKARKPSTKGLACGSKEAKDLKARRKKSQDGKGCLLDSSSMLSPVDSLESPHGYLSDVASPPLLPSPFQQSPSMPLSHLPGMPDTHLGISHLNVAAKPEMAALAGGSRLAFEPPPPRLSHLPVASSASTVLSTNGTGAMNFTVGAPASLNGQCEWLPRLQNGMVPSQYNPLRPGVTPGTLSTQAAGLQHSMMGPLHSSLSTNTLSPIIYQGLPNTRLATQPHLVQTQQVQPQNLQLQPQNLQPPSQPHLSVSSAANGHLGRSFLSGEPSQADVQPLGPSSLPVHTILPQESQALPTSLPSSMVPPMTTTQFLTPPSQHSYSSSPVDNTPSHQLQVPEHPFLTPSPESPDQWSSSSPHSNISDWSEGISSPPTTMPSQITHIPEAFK
UniProt Q924X6, residues 29-996: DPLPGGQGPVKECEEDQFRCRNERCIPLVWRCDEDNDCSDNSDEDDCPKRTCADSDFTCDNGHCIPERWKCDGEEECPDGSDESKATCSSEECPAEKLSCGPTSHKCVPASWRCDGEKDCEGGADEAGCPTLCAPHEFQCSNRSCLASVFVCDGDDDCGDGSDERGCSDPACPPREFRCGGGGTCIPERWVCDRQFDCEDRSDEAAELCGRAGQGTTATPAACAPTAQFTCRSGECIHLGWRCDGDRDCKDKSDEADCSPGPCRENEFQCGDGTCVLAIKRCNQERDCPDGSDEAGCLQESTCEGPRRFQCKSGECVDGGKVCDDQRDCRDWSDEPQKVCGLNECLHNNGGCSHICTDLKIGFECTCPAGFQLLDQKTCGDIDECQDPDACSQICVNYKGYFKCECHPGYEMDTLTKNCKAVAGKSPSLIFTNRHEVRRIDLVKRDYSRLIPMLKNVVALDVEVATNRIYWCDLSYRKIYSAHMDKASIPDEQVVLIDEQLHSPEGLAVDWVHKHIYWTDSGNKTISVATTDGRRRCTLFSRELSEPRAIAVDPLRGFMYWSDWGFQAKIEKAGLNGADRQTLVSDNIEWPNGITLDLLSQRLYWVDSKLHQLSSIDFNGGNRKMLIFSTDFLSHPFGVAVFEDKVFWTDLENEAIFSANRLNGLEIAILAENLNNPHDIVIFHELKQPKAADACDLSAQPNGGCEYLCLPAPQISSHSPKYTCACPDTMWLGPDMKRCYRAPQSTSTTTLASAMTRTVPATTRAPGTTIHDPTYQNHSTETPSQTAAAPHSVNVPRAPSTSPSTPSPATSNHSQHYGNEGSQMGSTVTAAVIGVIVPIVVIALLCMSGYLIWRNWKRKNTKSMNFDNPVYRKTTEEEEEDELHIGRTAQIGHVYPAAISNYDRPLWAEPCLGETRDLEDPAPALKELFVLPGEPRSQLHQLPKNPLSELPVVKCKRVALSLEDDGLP

B1: Disabled 1 (Dab1) (protein, UniProt P97318 1-588)
chain: MSTETELQVAVKTSAKKDSRKKGQDRSEATLIKRFKGEGVRYKAKLIGIDEVSAARGDKLCQDSMMKLKGVVAGARSKGEHKQKIFLTISFGGIKIFDEKTGALQHHHAVHEISYIAKDITDHRAFGYVCGKEGNHRFVAIKTAQAAEPVILDLRDLFQLIYELKQREELEKKAQKDKQCEQAVYQTILEEDVEDPVYQYIVFEAGHEPIRDPETEENIYQVPTSQKKEGVYDVPKSQPNSQPLEDFESRFAAATPNRNLSMDFDELLEATKVSAVTQLELFGDMSTPPDITSPPTPATPGDAFLPSSSQTLPGSADVFGSMSFGTAAVPSGYVAMGAVLPSFWGQQPLVQQQIAMGAQPPVAQVIPGAQPIAWGQPGLFPATQQAWPTVAGQFPPAAFMPTQTVMPLAAAMFQGPLTPLATVPGTNDSARSSPQSDKPRQKMGKESFKDFQMVQPPPVPSRKPDQPSLTCTSEAFSSYFNKVGVAQDTDDCDDFDISQLNLTPVTSTTPSTNSPPTPAPRQSSPSKSSASHVSDPTADDIFEEGFESPSKSEEQEAPDGSQASSTSDPFGEPSGEPSGDNISPQDGS

Experiments:
[1] = biological target: Notch1 (mouse (endogenous in hippocampus and cortex)) (UniProt Q01705); test: co-IP; whole cortical lysate of WT mice in non-ionic buffer, 1.2 mg protein; protein A/G magnetic beads; washes with 0.1% Triton, 50 mM Tris-HCl pH 7.5, 300 mM NaCl, one wash with 0.2% SDS; Western blot
[2] = biological target: Notch1 (mouse (endogenous in hippocampus and cortex)) (UniProt Q01705); test: co-IP; whole hippocampal (CA fields) cell lysate in non-ionic NP-40 buffer, 1.2 mg protein; antibodies against Notch1, ApoER2 or Dab1; protein A/G magnetic beads; washes with 0.1% Triton, 50 mM Tris-HCl pH 7.5, 300 mM NaCl, one wash with 0.2% SDS; Western blot
[3] = biological target: Notch1 (mouse (endogenous in hippocampus and cortex)) (UniProt Q01705); test: co-IP; synaptosomal membrane fractions of hippocampal CA fields (WT; N1cKO also for Notch1/ApoER2), 1.2 mg protein; antibodies against the intracellular portion of Notch1 or the extracellular portion of NR1; protein A/G magnetic beads; Western blot
[4] = biological target: apolipoprotein E receptor 2 (ApoER2) (mouse (endogenous in hippocampus and cortex)) (UniProt Q924X6); test: co-IP; whole cortical lysate of WT mice in non-ionic buffer, 1.2 mg protein; protein A/G magnetic beads; washes with 0.1% Triton, 50 mM Tris-HCl pH 7.5, 300 mM NaCl, one wash with 0.2% SDS; Western blot
[5] = biological target: apolipoprotein E receptor 2 (ApoER2) (mouse (endogenous in hippocampus and cortex)) (UniProt Q924X6); test: co-IP; whole hippocampal (CA fields) cell lysate in non-ionic NP-40 buffer, 1.2 mg protein; antibodies against Notch1, ApoER2 or Dab1; protein A/G magnetic beads; washes with 0.1% Triton, 50 mM Tris-HCl pH 7.5, 300 mM NaCl, one wash with 0.2% SDS; Western blot
[6] = biological target: Notch1 (mouse (endogenous in hippocampus and cortex)) (UniProt Q01705); test: as above; remark: listed apart in the source

| Molecule | binding [1] | binding [2] | binding [3] | binding [4] | binding [5] | binding [6] |
| --- | --- | --- | --- | --- | --- | --- |
| apolipoprotein E receptor 2 (ApoER2) (from UniProt Q924X6 29-996) | binds | binds weakly | binds |  |  |  |
| B1 | binds |  |  | binds | binds | binds |
